This is an account of results in PubChem BioAssay AID330 (DTP/NCI, 2004).

For the test, the system named is P388 leukemia ip, CD2F1 mice, survival T/C. The experiment in a line: NCI In Vivo Anticancer Drug Screen. Data for tumor model P388 Leukemia (intraperitoneal) in CD2F1 (CDF1) mice. The note with it: T/C endpoint: median survival time, higher T/C = longer survival.
[1] abbreviates: dose: 100.0 mg/kg/injection, schedule: Q01DX005 (ip), vehicle: saline with Tween-80.
[2] abbreviates: dose: 200.0 mg/kg/injection, schedule: Q01DX005 (ip), vehicle: saline with Tween-80.
The mark [3] stands for this setting: dose: 100.0 mg/kg/injection, schedule: Q01DX009 (ip), vehicle: saline with Tween-80.
Setting [4] is: dose: 200.0 mg/kg/injection, schedule: Q01DX009 (ip), vehicle: saline.
[5] abbreviates: dose: 400.0 mg/kg/injection, schedule: Q01DX009 (ip), vehicle: saline.
[6] abbreviates: dose: 400.0 mg/kg/injection, schedule: Q04DX003 (ip), vehicle: saline with Tween-80.
[7] abbreviates: dose: 100.0 mg/kg/injection, schedule: Q01DX009 (ip), vehicle: saline.
Where [8] appears, read: dose: 200.0 mg/kg/injection, schedule: Q01DX009 (ip), vehicle: saline with Tween-80.
The mark [9] stands for this setting: dose: 400.0 mg/kg/injection, schedule: Q01DX009 (ip), vehicle: saline with Tween-80.
[10] abbreviates: dose: 50.0 mg/kg/injection, schedule: Q01DX009 (ip), vehicle: saline.

The list is a part of this screen's results and no random one: it gathers tests that were run many times, whatever their T/C, doses with no T/C, and many T/C values between a quarter and a half above the control. Further doses and runs are listed elsewhere. T/C gives the treated animals as a percentage of the vehicle group. Some doses have a count of surviving animals in place of a T/C: the source holds a T/C of zero for them, seemingly a mark for toxic or unscored doses. Some survivor counts are full or nearly so, which does not show that the dose was tolerated: the source hardly ever lists a survival T/C far under the control, and the zero likely stands for such cases as well. Counts of survivors are from the toxicity check (mostly the fifth day) where no day follows; animals may have died later. Schedules are NCI's codes, taken here to give the interval after Q, in days (D) or hours (H), and the number of doses after X. Some entries hold several experiments; the results are listed from low to high. For survival time, the PubChem record calls one and a half times the control and up active, and a quarter to a half above the control has no call in these data; cut-offs in other NCI protocols can differ. Some T/C values carry the count of animals alive at the toxicity check (mostly the fifth day); without a count, all were alive then.

Regarding `O=C1CS(=O)(=O)C(c2ccc(Cl)cc2)N1N1C(=O)CS(=O)(=O)C1c1ccc(Cl)cc1` (stereo not drawn), the survivor count is 5 of 5 (dose: 50.0 mg/kg/injection, schedule: Q01DX005 (ip), vehicle: saline with Tween-80); 6 of 6 under setting [1]; 6 of 6 under setting [2].

Turning to `CC(=O)OC1CC(C(C)C2CC(C)=C(C)C(=O)O2)C2(C)CCC3C(CC4OC45C(O)C=CC(=O)C35C)C12O` (stereo not drawn), the survivor count (dose: 60.0 mg/kg/injection, schedule: Q01DX005 (ip), vehicle: Klucel (hydroxypropylcellulose) (HPC)) is on record as 0 of 6.

Consider `CS(=O)(=O)c1cc(C(F)(F)F)cc([N+](=O)[O-])c1Cl`, for which, under setting [3], the survivor count is given as 6 of 6.

Take `NCCc1ccc([N+](=O)[O-])cc1`: the survivor count is given as 0 of 6 under setting [4] and 0 of 6 under setting [5].

Consider `c1ccc2c3cc(cc2c1)OCCOCCOCCOc1ccc2ccccc2c1-c1c(ccc2ccccc12)OCCOCCOc1ccc2ccccc2c1-3`, for which the survivor count (dose: 400.0 mg/kg/injection, schedule: Q01DX001 (ip), vehicle: saline with Tween-80) is reported as 6 of 6.

As to `O=S(=O)(Nc1ccccn1)c1ccc(N(CCCl)CCCl)cc1`, under setting [6], the survivor count was 5 of 6.

Regarding `CCOC(=O)c1[nH]c(C)nc1/N=N/N(C)C`, under setting [7], the T/C was 125 % of control. The survivor count under setting [5] is 6 of 6.

With `CCOC(=O)CCC(C)(C#N)c1ccccc1` (stereo not drawn), the survivor count runs as follows: under setting [8], 4 of 6; under setting [9], 5 of 6.

Consider `NCC(=O)O.[Cl-].[Cl-].[Cl-].[Cl-].[Pt+2]`, for which the T/C reads like this: (dose: 25.0 mg/kg/injection, schedule: Q01DX009 (ip), vehicle: saline) 140 % of control [5 of 6 alive]; (dose: 33.0 mg/kg/injection, schedule: Q01DX009 (ip), vehicle: saline) 126 % of control; under setting [10], 138 % of control [5 of 6 alive]. Moreover, the survivor count under setting [10] was 2 of 6; the survivor count (dose: 75.0 mg/kg/injection, schedule: Q01DX009 (ip), vehicle: saline) is on record as 0 of 6; the survivor count under setting [7] was 2 of 6; the survivor count under setting [4] is listed as 0 of 6.

Regarding `O=S1(=O)N=C([O-])c2ccc(C[N+]3(CCCl)CCN(CCCl)CC3)cc21`, the survivor count (dose: 50.0 mg/kg/injection, schedule: Q01DX009 (ip), vehicle: DMSO) was 6 of 6 and the survivor count (dose: 200.0 mg/kg/injection, schedule: Q01DX009 (ip), vehicle: DMSO) is 0 of 6.

On to `O=C1CN(CN2CCOCC2)C(=O)CN1CN1CCOCC1`, for which, under setting [10], the T/C is 135 % of control.

Turning to `Cc1c(-c2ccc(-c3ccccc3F)cc2)nc2ccc(F)cc2c1C(=O)O`, the T/C was 142 % of control (dose: 5.6 mg/kg/injection, schedule: Q01DX005 (ip), vehicle: water); 141 % of control (dose: 11.25 mg/kg/injection, schedule: Q01DX005 (ip), vehicle: water); 139 % of control (dose: 22.5 mg/kg/injection, schedule: Q01DX005 (ip), vehicle: water, evaluated on day 20); 149 % of control (dose: 22.5 mg/kg/injection, schedule: Q01DX005 (ip), vehicle: water, evaluated on day 30); 143 % of control (dose: 45.0 mg/kg/injection, schedule: Q01DX005 (ip), vehicle: water); 143 % of control (dose: 90.0 mg/kg/injection, schedule: Q01DX005 (ip), vehicle: water). Further, the survivor count (dose: 180.0 mg/kg/injection, schedule: Q01DX005 (ip), vehicle: water) was 3 of 6.

With `ClCC(CCl)(CCl)CCl`, the survivor count (dose: 200.0 mg/kg/injection, schedule: Q04DX003 (ip), vehicle: saline with Tween-80) was 1 of 6 and the survivor count under setting [6] was 0 of 6.

As for `CC[C@@]1(O)C(=O)OCc2c1cc1n(c2=O)Cc2cc3c(OC)cccc3nc2-1`, the T/C (dose: 0.75 mg/kg/injection, schedule: Q01DX009 (ip), vehicle: saline with Tween-80) is 149 % of control; the T/C (dose: 0.79 mg/kg/injection, schedule: Q04DX003 (ip), vehicle: other) was 128 % of control; the T/C (dose: 1.57 mg/kg/injection, schedule: Q04DX003 (ip), vehicle: other) was 136 % of control. The survivor count (dose: 12.5 mg/kg/injection, schedule: Q04DX003 (ip), vehicle: other) is given as 1 of 6.

As to `CN=C(N)N/N=C/c1ccc2c(c1)Cc1ccccc1-2`, the T/C was 126 % of control (dose: 12.5 mg/kg/injection, schedule: Q04DX002 (ip), vehicle: saline with Tween-80); 126 and 129 % of control (dose: 25.0 mg/kg/injection, schedule: Q04DX002 (ip), vehicle: saline with Tween-80); 125 % of control [5 of 6 alive] (dose: 50.0 mg/kg/injection, schedule: Q04DX002 (ip), vehicle: saline with Tween-80); 132 % of control [5 of 6 alive] (dose: 100.0 mg/kg/injection, schedule: Q04DX002 (ip), vehicle: saline with Tween-80). The survivor count (dose: 200.0 mg/kg/injection, schedule: Q04DX002 (ip), vehicle: saline with Tween-80) was 0 of 6 and 1 of 6.

For `N#Cc1nnn(Cc2ccccc2)c1N`, the survivor count runs as follows: under setting [3], 4 of 6; under setting [8], 0 of 6.

On to `O=S(=O)(OI(O)c1ccccc1)c1ccccc1`, for which the survivor count was 5 of 6 (dose: 100.0 mg/kg/injection, schedule: Q01DX009 (ip), vehicle: water) and 1 of 6 (dose: 200.0 mg/kg/injection, schedule: Q01DX009 (ip), vehicle: water).

For the compound `O=C(c1nc2ccccc2[nH]1)N1CCN(c2ccccc2)CC1`, the survivor count (dose: 50.0 mg/kg/injection, schedule: Q01DX005 (ip), vehicle: Klucel (hydroxypropylcellulose) (HPC)) was 5 of 6.

Regarding `Cc1noc(NS(=O)(=O)c2ccc(N=Nc3cc(N=Nc4ccc(S(=O)(=O)Nc5onc(C)c5C)cc4)c4c(NC(=O)C(Cl)Cl)cccc4c3O)cc2)c1C` (tested in a mixture with another compound), the T/C was 126 and 128 % of control under setting [1]; 140 % of control under setting [2]. Also, the survivor count reads like this: under setting [2], 5 of 5; (dose: 400.0 mg/kg/injection, schedule: Q01DX005 (ip), vehicle: saline with Tween-80) 1 of 5.

Regarding `O=[N+]([O-])c1ccc(Sc2ncccn2)cc1`, for the setting “dose: 100.0 mg/kg/injection, schedule: Q04DX002 (ip), vehicle: suspension in saline”, the survivor count is 3 of 6.

For `CCN(CC)C1=NS(=O)(=O)c2ccccc2C(c2ccccc2)=C1C`, the survivor count (dose: 200.0 mg/kg/injection, schedule: Q04DX003 (ip), vehicle: Klucel (hydroxypropylcellulose) (HPC)) is 6 of 6.

Turning to `O=C1OC(C2=CC(=O)c3ccccc3C2=O)C(Cl)=C1Cl` (stereo not drawn), under setting [2], the survivor count is listed as 0 of 6.

In the case of `CC(OS(C)(=O)=O)C(Br)C(Br)C(C)OS(C)(=O)=O` (stereo not drawn), the T/C (dose: 50.0 mg/kg/injection, schedule: Q01DX001 (ip), vehicle: Klucel (hydroxypropylcellulose) (HPC)) is 145 % of control.

With `Nc1csc(Nc2c3ccccc3nc3ccccc23)n1`, the survivor count is, setting by setting: (dose: 50.0 mg/kg/injection, schedule: Q04DX002 (ip), vehicle: distilled water + Tween-80) 5 of 6; (dose: 100.0 mg/kg/injection, schedule: Q04DX002 (ip), vehicle: distilled water + Tween-80) 2 of 6; (dose: 200.0 mg/kg/injection, schedule: Q04DX002 (ip), vehicle: distilled water + Tween-80) 1 of 6; (dose: 400.0 mg/kg/injection, schedule: Q04DX002 (ip), vehicle: distilled water + Tween-80) 1 of 6.

On to `S=c1[nH]cc2cnccn12`, for which the survivor count under setting [6] is listed as 0 of 6.

As for `CC(O)CC(O)CC1CCCO1` (stereo not drawn), the survivor count runs as follows: (dose: 100.0 mg/kg/injection, schedule: Q01DX005 (ip), vehicle: saline) 5 of 5; (dose: 200.0 mg/kg/injection, schedule: Q01DX005 (ip), vehicle: saline) 5 of 5.

`CCCCCCC(/C=C/c1ccc(N(C)C)cc1)=N\O`: under setting [9], the survivor count is listed as 6 of 6.

For `Clc1cc(Cl)nc(N2CC2)n1`, the survivor count (dose: 20.0 mg/kg/injection, schedule: Q01DX009 (ip), vehicle: saline with Tween-80) is 0 of 6.
